Assay results reported in article PMC12431657, “Discovery and mechanistic insights of dibenzoylmethane as a broad spectrum inhibitor of coronavirus” (PLOS Pathogens, 2025).
Counter-ions that a name gives are not always drawn. Like-named read-outs stand apart in the source and are kept apart here. Out of some 3,300 compounds screened, about 95 (3%) showed an effect of 50% or more. This is one part of the list. Numbered stars: 1 amine (or outer) side, 2 acyl side, 3 side chain; on linkers, the order of the positions; unused ones are H or OH. Bridge positions count the residues as written; N and C are the ends. Square brackets hold non-standard residues; d marks the D form. Peptide text beside a SMILES is read from it. X2 = CC(C)CCCCCCCCC[C@H](CC(=O)[*:1])O[*:2]

Tested on: HCoV-229E
Design: species or system Huh-7; HTS, protection from HCoV-229E induced cell death, luminescent cell viability (CellCounting-Lite 2.0), inhibition rate
Details: 24 h post infection, 1 h compound pre-incubation, 10 µM, inhibitor

Structure (SMILES) | 229E Inhibition rate [%] | 229E Inhibition rate (229E Inhibition rate, 24 h) [%]
CC1=CC(=O)[C@@H]2C[C@H]1C2(C)C [Verbenone] | 0 | –
O=C(/C=C/c1ccccc1)c1ccccc1 [trans-Chalcone] | – | 5.4
CCOC(=O)CC(=O)O [3-Ethoxy-3-oxopropanoic acid] | 0 | –
O=C1CCc2ccccc2O1 [Dihydrocoumarin] | 45.1 | –
CC1=C(C/C=C(\C)CCC[C@H](C)CCC[C@H](C)CCCC(C)C)C(=O)c2ccccc2C1=O [Vitamin K1] | 11.9 | –
O=C(O)CC(O)CC(=O)O [3-Hydroxyglutaric acid] | 16.6 | –
NCCc1c[nH]cn1 [Histamine (phosphate)] | – | 8.3
C=C(CCC(C(=O)O)[C@H]1[C@H](O)C[C@@]2(C)C3=CC[C@H]4C(C)(C)[C@@H](OC(C)=O)CC[C@]4(C)C3=CC[C@]12C)C(C)C (stereo partly drawn) [Dehydropachymic acid] | 15.8 | –
O=C[C@H](O)[C@@H](O)[C@H](O)[C@H](O)COP(=O)(O)O [D-Glucose 6-phosphate (disodium salt)] | 7.6 | –
O=C(O)[C@H]1O[C@@H](Oc2cc3oc(-c4ccccc4)cc(=O)c3c(O)c2O)[C@H](O)[C@@H](O)[C@@H]1O [Baicalin] | 6.9 | –
N[C@@H](Cc1ccc(O)c(I)c1)C(=O)O [H-Tyr(3-I)-OH] | 9.3 | –
O=Cc1ccc(O)cc1 [p-Hydroxybenzaldehyde] | 10.9 | –
OC[C@H]1O[C@H](Oc2ccc(O)cc2)[C@H](O)[C@@H](O)[C@@H]1O [α-Arbutin] | 12.4 | –
O=C(CCCCCCCCc1ccc(O)cc1)c1c(O)cccc1O [Malabaricone B] | 23.4 | –
COC(=O)[C@@]1(C)CC[C@]2(C(=O)O)CC[C@]3(C)C(=CC[C@@H]4[C@@]5(C)C[C@H](O)[C@H](O)[C@@](C)(CO)[C@@H]5CC[C@]43C)[C@@H]2C1 [Phytolaccagenin] | 22.3 | –
CC1(C)[C@H]2CC[C@]1(C)C(=O)C2 [Camphor] | 9.3 | –
COc1c2ccoc2c(OC[C@@H](O)C(C)(C)O)c2oc(=O)ccc12 [Byakangelicin] | 15.1 | –
Nc1ccn([C@@H]2O[C@H](CO)[C@@H](O)[C@@H]2O)c(=O)n1 [Cytarabine] | 0 | –
COc1ccc(C[C@@H]2c3cc(Oc4cc(C[C@@H]5c6cc(OC)c(OC)cc6CCN5C)ccc4O)c(OC)cc3CCN2C)cc1 [Neferine] | 6.2 | –
C=C(C)[C@@H](CC=C(C)C)C[C@@]12C[C@@H](CC=C(C)C)C(C)(C)[C@@](CC=C(C)C)(C(=O)C(C(=O)c3ccc(O)c(O)c3)=C1O)C2=O [Garcinol] | 3.5 | –
C[N+](C)(C)[C@@H](Cc1c[nH]c(=S)[nH]1)C(=O)[O-] [Ergothioneine] | 12.7 | –
CC(C)=CCc1c(O)cc(O)c2c(=O)c(-c3ccc(O)cc3)coc12 [Lupiwighteone] | 63.8 | –
OCc1cn[nH]c1 [4-Hydroxymethylpyrazole] | 48.6 | –

Structure (SMILES) | 229E Inhibition rate [%] | 229E Inhibition rate (229E Inhibition rate, 24 h) [%]
Oc1cc(O)c2c(c1)O[C@@H](c1cc(O)c(O)c(O)c1)[C@H](O)C2 [(-)-Gallocatechin] | 16.1 | –
CC(/C=C/C=C(\C)C(=O)O)=C\C=C\C=C(C)\C=C\C=C(/C)C(=O)O [Transcrocetinate disodium] | – | 10.6
CCCCC(CC)CCC(=O)O (stereo not drawn) [4-Ethyloctanoic acid] | 0 | –
Cc1cccc(O)c1O [3-Methylcatechol] | 35.9 | –
O=c1[nH]cnc2c1ncn2[C@@H]1O[C@H](CO)[C@@H](O)[C@H]1O [Inosine] | 11.8 | –
COc1ccc(-c2coc3cc(O)ccc3c2=O)cc1O [Calycosin] | 13.9 | –
O=C(O)C[C@@H](O)C(=O)O [D-(+)-Malic acid] | 7.2 | –
NC(=O)c1ccc[n+]([O-])c1 [Nicotinamide N-oxide] | 12.1 | –
CC1=C(C/C=C(\C)CCCC(C)CCCC(C)CCCC(C)C)C(=O)c2ccccc2C1=O (stereo not drawn) [Vitamin K] | 7.3 | –
O=c1ccc2ccccc2o1 [Coumarin] | 17.3 | –
C[N+](C)(C)[O-] [Trimethylamine N-oxide] | – | 7.5
C=C[C@H]1CN2CC[C@H]1C[C@H]2[C@H](O)c1ccnc2ccc(OC)cc12 [Quinine (hydrochloride dihydrate)] | – | 0
c1ccc2c(c1)[nH]c1cnccc12 [Norharmane] | 25.5 | –
CCOC(=O)c1c(C)cc(O)cc1O [Ethyl Orsellinate] | 21.3 | –
OC[C@H]1O[C@@H](O[C@H]2[C@H](O)[C@@H](O)[C@H](O)O[C@@H]2CO)[C@H](O)[C@@H](O)[C@H]1O [Lactose] | 22.6 | –
C[C@H](O)[C@H](O)c1cnc2nc(N)[nH]c(=O)c2n1 [6-Biopterin] | 11.1 | –
CC1=CC[C@@H](C(C)(C)O)CC1 [α-Terpineol] | – | 0
O=c1ccn([C@@H]2O[C@H](COP(=O)(O)OP(=O)(O)OP(=O)(O)O)[C@@H](O)[C@H]2O)c(=O)[nH]1 [Uridine triphosphate (trisodium salt)] | 12.4 | –
COc1cc(O)c2c(=O)cc(-c3ccc(O)cc3)oc2c1 [Genkwanin] | 24.9 | –
Oc1cc2c(cc1O)[C@@H]1c3ccc(O)c(O)c3OC[C@]1(O)C2 [Hematoxylin] | 7.3 | –
COc1ccc(-c2cc(=O)c3c(OC)cc(OC)c(OC)c3o2)cc1OC [Isosinensetin] | 42 | –
CC(=O)[C@H]1CC[C@H]2[C@@H]3CC=C4C[C@@H](O)CC[C@]4(C)[C@H]3CC[C@]12C [Pregnenolone] | 40.7 | –
O=C(O)CNC(=O)c1ccco1 [2-Furoylglycine] | 6.8 | –

Reprinted at random: 4 records from the list
Structure (SMILES) | 229E Inhibition rate [%] | 229E Inhibition rate (229E Inhibition rate, 24 h) [%]
CC1=C(C/C=C(\C)CCCC(C)CCCC(C)CCCC(C)C)C(=O)c2ccccc2C1=O (stereo not drawn) [Vitamin K] | 7.3 | –
O=c1ccn([C@@H]2O[C@H](COP(=O)(O)OP(=O)(O)OP(=O)(O)O)[C@@H](O)[C@H]2O)c(=O)[nH]1 [Uridine triphosphate (trisodium salt)] | 12.4 | –
C[C@H](O)[C@H](O)c1cnc2nc(N)[nH]c(=O)c2n1 [6-Biopterin] | 11.1 | –
Cc1cccc(O)c1O [3-Methylcatechol] | 35.9 | –

Carrying on.

Structure (SMILES) | 229E Inhibition rate [%] | 229E Inhibition rate (229E Inhibition rate, 24 h) [%]
O=C(O)[C@H]1O[C@@H](Oc2cc(O)c3c(=O)cc(-c4ccc(O)c(O)c4)oc3c2)[C@H](O)[C@@H](O)[C@@H]1O [Luteolin 7-O-glucuronide] | 11.2 | –
O=c1ccc2ccc(O[C@@H]3O[C@H](CO)[C@@H](O)[C@H](O)[C@H]3O)c(O)c2o1 [Daphnin] | 5.9 | –
CC(/C=C/C(=O)NO)=C\[C@@H](C)C(=O)c1ccc(N(C)C)cc1 [Trichostatin A] | 1.9 | –
CC(=O)O[C@@H](CC=C(C)C)C1=CC(=O)c2c(O)ccc(O)c2C1=O [Acetylalkannin] | 10.1 | –
CCC(C)CC(=O)O (stereo not drawn) [3-Methylvaleric Acid] | 17 | –
O=C(O)[C@@H](O)CO [L-Glyceric acid (sodium)] | 18.8 | –
CC1(C)[C@@H](O)CC[C@]2(C)[C@H]3C(=O)C=C4[C@H]5C[C@@](C)(C(=O)O)CC[C@]5(C)CC[C@@]4(C)[C@]3(C)CC[C@@H]12 [18α-Glycyrrhetinic acid] | 19.8 | –
CC1=C(CCC(=O)O)c2cc3nc(cc4[nH]c(cc5[nH]c(cc1n2)c(C)c5CCC(=O)O)c(CCC(=O)O)c4C)C(CCC(=O)O)=C3C [Coproporphyrin III] | 9.5 | –
CC(=O)c1c(O)cc(O)cc1O [Phloracetophenone] | 14.2 | –
CC(C)CCC[C@@H](C)[C@H]1CC[C@H]2[C@@H]3CC[C@H]4C[C@@H](O)CC[C@]4(C)[C@H]3CC[C@]12C [5α-Cholestan-3β-ol] | 6.7 | –
COc1cc(C(=O)O)cc(OC)c1OC [3,4,5-Trimethoxybenzoic acid] | 11.2 | –
COc1ccc(CCNC(=O)/C=C/c2ccc(O)c(O)c2)cc1 [N-Caffeoyl O-methyltyramine] | 27.1 | –
C/C=C/C=C/C(=O)O [Potassium sorbate] | – | 12.1
Cc1cc(=O)oc2c(O)c(O)ccc12 [4-Methyldaphnetin] | 9.1 | –
C[C@H](CCC(=O)NCCS(=O)(=O)O)[C@H]1CC[C@H]2[C@@H]3CC[C@@H]4C[C@H](O)CC[C@]4(C)[C@H]3CC[C@]12C [Taurolithocholic acid (sodium salt)] | 0 | –
CC(C)CCCCCCCCC[C@@H]1CC(=O)N[C@@H](CCC(=O)O)C(=O)N[C@@H](CC(C)C)C(=O)N[C@H](CC(C)C)C(=O)N[C@@H](C(C)C)C(=O)N[C@@H](CC(=O)O)C(=O)N[C@H](CC(C)C)C(=O)N[C@@H](CC(C)C)C(=O)O1 [Surfactin] (EL[dL]VD[dL]L; linker N-C via X2) | 0 | –
CC1(C)CC[C@]2(C(=O)O)CC[C@]3(C)C(=CC[C@@H]4[C@@]5(C)C[C@@H](O)[C@H](O)[C@@](C)(CO)[C@@H]5[C@H](O)C[C@]43C)[C@@H]2C1 [Terminolic acid] | 44.5 | –
O=c1cc(-c2ccc(O)cc2)oc2c([C@@H]3O[C@H](CO)[C@@H](O)[C@H](O)[C@H]3O)c(O)c([C@@H]3OC[C@@H](O)[C@H](O)[C@H]3O)c(O)c12 [Vicenin-1] | 12.3 | –
CC(C)c1ccc2c(c1O)CC[C@H]1C3=C(CC[C@]21C)C(=O)OC3 [Triptophenolide] | 34 | –
CC(=O)c1ccc(C)cc1 [4'-Methylacetophenone] | 8.7 | –
C[C@@H](O)CC(=O)O [(R)-3-Hydroxybutanoic acid] | – | 12.3
COC(=O)[C@]1(O)C[C@@H](O)[C@@H](O)[C@H](OC(=O)/C=C/c2ccc(O)c(O)c2)C1 [3-O-Caffeoylquinic acid methyl ester] | 24.2 | –
Cn1c(N)nc2c(ncn2[C@@H]2O[C@H](CO)[C@@H](O)[C@H]2O)c1=O [1-Methylguanosine] | 8.6 | –
